In article PMC10657365 one finds binding data, which are given here for 1 substance.

By UniProt entry, the sequences of proteins in these tests, tags left out.
UniProt Q99613: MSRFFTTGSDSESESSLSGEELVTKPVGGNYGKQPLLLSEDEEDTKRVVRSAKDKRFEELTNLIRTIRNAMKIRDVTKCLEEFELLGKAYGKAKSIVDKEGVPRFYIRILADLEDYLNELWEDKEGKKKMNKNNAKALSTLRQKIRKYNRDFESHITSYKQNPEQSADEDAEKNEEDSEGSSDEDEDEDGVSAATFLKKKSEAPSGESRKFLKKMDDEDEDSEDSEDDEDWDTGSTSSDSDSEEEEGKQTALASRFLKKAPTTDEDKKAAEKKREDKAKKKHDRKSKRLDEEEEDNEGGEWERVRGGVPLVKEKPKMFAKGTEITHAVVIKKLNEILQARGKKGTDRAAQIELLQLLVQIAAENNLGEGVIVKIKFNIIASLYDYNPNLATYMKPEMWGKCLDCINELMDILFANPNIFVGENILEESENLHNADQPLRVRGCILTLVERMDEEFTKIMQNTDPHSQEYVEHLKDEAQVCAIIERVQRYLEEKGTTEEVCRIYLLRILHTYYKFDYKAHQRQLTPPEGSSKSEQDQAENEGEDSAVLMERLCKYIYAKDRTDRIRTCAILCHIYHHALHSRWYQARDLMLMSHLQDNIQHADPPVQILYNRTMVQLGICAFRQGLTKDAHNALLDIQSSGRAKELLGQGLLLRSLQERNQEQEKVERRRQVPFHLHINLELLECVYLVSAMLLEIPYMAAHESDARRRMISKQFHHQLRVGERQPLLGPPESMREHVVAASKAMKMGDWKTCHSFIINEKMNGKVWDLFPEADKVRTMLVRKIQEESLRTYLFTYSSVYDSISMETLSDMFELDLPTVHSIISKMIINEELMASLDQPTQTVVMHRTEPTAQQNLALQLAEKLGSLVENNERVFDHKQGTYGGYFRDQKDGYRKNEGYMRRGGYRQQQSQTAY

Results are given in words; binding and its absence hold for the method and conditions named. In cells and extracts the contact can be indirect. These calls come from enrichment with a bait or labelling near it, and not all partners need be listed.

The assay deals with Smad ubiquitin regulatory factor 2 (SMURF2), bait of the mass spectrometry analysis in OC cells (human (in human OC cells)) (UniProt Q9HAU4). Nature of the assay: affinity purification with mass spectrometry; SMURF2 precipitate from OC cells analysed by mass spectrometry.

EIF3c (from UniProt Q99613 1-913): the binding entry is “binds”.
